Measurements from PubChem BioAssay AID180 (DTP/NCI, 2004).
The list is a part of this screen's results and no random one: it is rich in T/C values a quarter to a half above the control, in often repeated tests (any T/C) and in doses without a T/C. Other doses and runs of a compound stand elsewhere. T/C: endpoint of the treated group in % of that of the vehicle group. Schedule codes are those of the source, read here as Q, the interval in days (D) or hours (H), X, the number of doses. Some entries hold several experiments; the results are listed from low to high. Some T/C values are followed by the survivors on the day toxicity was checked, most often the fifth; where none is given, no animal had died by that day. Some entries give survivors of the animals treated and no T/C: the source files T/C as zero there, which appears to mark a toxic dose or a test without result, not a measured value. Counts of survivors are from the toxicity check (mostly the fifth day) where no day follows; animals may have died later.

Test system: BDF1 mice, Adenocarcinoma 755 s.c., tumor weight T/C
Assay: NCI In Vivo Anticancer Drug Screen. Data for tumor model Adenocarcinoma 755 (subcutaneous) in B6D2F1 (BDF1) mice
Settings: T/C endpoint: mean tumor weight, higher T/C = larger tumour; for T/C: evaluated on day 12
Summary of the method: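 Transplantable tumor implanted; mice dosed with compound or vehicle; survival or tumor size recorded; ratio of treated to vehicle control reported.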

[1] = dose: 200.0 mg/kg/injection, schedule: Q01DX011 (ip), vehicle: carboxymethylcellulose (CMC)
[2] = dose: 400.0 mg/kg/injection, schedule: Q01DX011 (ip), vehicle: carboxymethylcellulose (CMC)
[3] = dose: 125.0 mg/kg/injection, schedule: Q01DX011 (ip), vehicle: methylcellulose (MC)
[4] = dose: 500.0 mg/kg/injection, schedule: Q01DX011 (ip), vehicle: carboxymethylcellulose (CMC)

`CC(=O)[C@H]1CC[C@H]2[C@@H]3CCC4=CC(=O)CC[C@]4(C)[C@H]3CC[C@]12C` was tested, and the T/C (dose: 125.0 mg/kg/injection, schedule: Q01DX011 (sc), vehicle: steroid suspending solution) was 144 % of control [9 of 10 alive] and the T/C (dose: 1000.0 mg/kg/injection, schedule: Q01DX011 (sc), vehicle: steroid suspending solution) was 126 % of control.

`OCCNc1ncnc2c1ncn2C1CCCO1` (stereo unspecified) was tested, and the T/C (dose: 25.0 mg/kg/injection, schedule: Q01DX011 (ip), vehicle: saline) was 125 % of control.

With `O=[N+]([O-])c1ccc2ncccc2c1` the survivor count (dose: 50.0 mg/kg/injection, schedule: Q01DX011 (ip), vehicle: other) was 2 of 10 and the survivor count (dose: 250.0 mg/kg/injection, schedule: Q01DX011 (ip), vehicle: other) was 2 of 10.

With `O=C(Nc1ccc(NC2=NCCN2)cc1)c1ccc(C(=O)Nc2ccc(NC3=NCCN3)cc2)cc1` the T/C (dose: 2.0 mg/kg/injection, schedule: Q01DX011 (ip), vehicle: saline) was 143 % of control [9 of 10 alive], the survivor count (dose: 32.0 mg/kg/injection, schedule: Q01DX011 (ip), vehicle: saline) was 0 of 10 and the survivor count (dose: 64.0 mg/kg/injection, schedule: Q01DX011 (ip), vehicle: saline) was 0 of 10.

With `CC(=O)[C@H]1CC[C@H]2[C@@H]3C[C@H](C)C4=CC(=O)CC[C@]4(C)[C@H]3[C@@H](O)C[C@]12C` the survivor count (dose: 400.0 mg/kg/injection, schedule: Q01DX011 (sc), vehicle: steroid suspending solution) was 3 of 10 and 6 of 10.

For `CCSc1nc(Cl)cc(Sc2nc(N)nc3nc[nH]c23)n1`, the survivor count (dose: 288.0 mg/kg/injection, schedule: Q01DX011 (ip), vehicle: methylcellulose (MC)) was 1 of 10.

`CCOc1ccc2nc(S(N)(=O)=O)sc2c1` was tested, and the survivor count [1] was 5 of 10, the survivor count (dose: 200.0 mg/kg/injection, schedule: Q01DX011 (ip), vehicle: methylcellulose (MC)) was 5 of 10 and the survivor count (dose: 300.0 mg/kg/injection, schedule: Q01DX011 (ip), vehicle: carboxymethylcellulose (CMC)) was 4 of 10. The survivor count [2] was 1 of 10 and the survivor count (dose: 600.0 mg/kg/injection, schedule: Q01DX011 (ip), vehicle: carboxymethylcellulose (CMC)) was 0 of 10.

`Nc1cc(C(=O)O)nc(N)n1` was tested, and the T/C (dose: 15.0 mg/kg/injection, schedule: Q01DX011 (ip), vehicle: methylcellulose (MC)) was 126 % of control [8 of 10 alive], the survivor count (dose: 62.0 mg/kg/injection, schedule: Q01DX011 (ip), vehicle: methylcellulose (MC)) was 5 of 10 and the survivor count [3] was 4 of 10.

`C[C@H]1C[C@H]2[C@@H]3CC[C@](O)(C(=O)CF)[C@@]3(C)C[C@H](O)[C@]2(F)[C@@]2(C)C=CC(=O)C=C12` was tested, and the survivor count (dose: 80.0 mg/kg/injection, schedule: Q01DX011 (sc), vehicle: steroid suspending solution) was 4 of 10.

For `O=[As]O`, the T/C (dose: 1.57 mg/kg/injection, schedule: Q01DX011 (ip), vehicle: carboxymethylcellulose (CMC)) was 142 % of control, the survivor count (dose: 10.0 mg/kg/injection, schedule: Q01DX011 (ip), vehicle: methylcellulose (MC)) was 2 of 10 and the survivor count (dose: 13.0 mg/kg/injection, schedule: Q01DX011 (ip), vehicle: carboxymethylcellulose (CMC)) was 5 of 10.

For `C/C(=N\NC(=O)c1ccncc1)c1cc(Cl)ccc1Cl`, the survivor count (dose: 120.0 mg/kg/injection, schedule: Q01DX011 (ip), vehicle: methylcellulose (MC)) was 1 of 10.

In the case of `N#Cc1cn(Cc2ccco2)c(=O)[nH]c1=O`, the survivor count [3] is reported as 6 of 10.

With `CC(=O)OCC1OC(n2ncc(=O)[nH]c2=O)C(OC(C)=O)C1OC(C)=O` (stereo unspecified) the T/C (dose: 750.0 mg/kg/injection, schedule: Q01DX011 (ip), vehicle: other) was 125 % of control [9 of 10 alive].

In the case of `O=C(OCC1OC(n2cnc3c(=S)nc[nH]c32)C(OC(=O)c2ccccc2)C1OC(=O)c1ccccc1)c1ccccc1` (stereo unspecified), the T/C (dose: 16.0 mg/kg/injection, schedule: Q01DX011 (ip), vehicle: carboxymethylcellulose (CMC)) is reported as 125 % of control [9 of 10 alive], the T/C (dose: 63.0 mg/kg/injection, schedule: Q01DX011 (ip), vehicle: carboxymethylcellulose (CMC)) is reported as 22, 31, 35, 43 % of control and the survivor count [2] is reported as 6 of 10. The survivor count [4] was 4 of 10.

For `C[C@]12CC[C@H](O)C[C@H]1CC[C@@H]1[C@@H]2CC[C@]2(C)[C@@H](C3=CC(=O)OC3)[C@@H](O)C[C@]12O`, the T/C (dose: 10.0 mg/kg/injection, schedule: Q01DX011 (sc), vehicle: steroid suspending solution) was 127 % of control.

With `S=c1nc[nH]c2c1ncn2C1CCCC1` the survivor count (dose: 250.0 mg/kg/injection, schedule: Q01DX011 (ip), vehicle: methylcellulose (MC)) was 2 of 10.

`c1nc(N2CC2)c2cnn(C3CCCCO3)c2n1` (stereo unspecified) was tested, and the survivor count (dose: 50.0 mg/kg/injection, schedule: Q01DX011 (ip), vehicle: saline) was 6 of 10.

`COc1cc(-c2ccc(N=Nc3c(O)ccc4ccccc34)c(OC)c2)ccc1N=Nc1ccc2c(S(=O)(=O)O)cc(S(=O)(=O)O)c(N)c2c1O` was tested, and the survivor count (dose: 450.0 mg/kg/injection, schedule: Q01DX011 (ip), vehicle: carboxymethylcellulose (CMC)) was 2 of 10.

In the case of `Nc1nc(=S)c2ncn(C3OC(COC(=O)c4ccc(Cl)cc4)C(OC(=O)c4ccc(Cl)cc4)C3OC(=O)c3ccc(Cl)cc3)c2[nH]1` (stereo unspecified), the T/C (dose: 25.0 mg/kg/injection, schedule: Q01DX011 (ip), vehicle: carboxymethylcellulose (CMC)) is reported as 1, 2, 7, 17 % of control, the survivor count (dose: 100.0 mg/kg/injection, schedule: Q01DX011 (ip), vehicle: carboxymethylcellulose (CMC)) is reported as 0 of 12 and 5 of 10 and the survivor count [1] is reported as 0 of 10 and 0 of 12.

In the case of `NNC(=O)NC(=O)NN`, the T/C (dose: 1922.5 micrograms/kg/injection, schedule: Q01DX011 (ip), vehicle: carboxymethylcellulose (CMC)) is reported as 135 % of control and the survivor count (dose: 9610.0 micrograms/kg/injection, schedule: Q01DX011 (ip), vehicle: carboxymethylcellulose (CMC)) is reported as 6 of 10.

For `CCCCn1cnc2c(=O)[nH]cnc21`, the survivor count (dose: 1.8 mg/kg/injection, schedule: Q01DX011 (oral), vehicle: carboxymethylcellulose (CMC)) was 6 of 10, the survivor count (dose: 66.12 mg/kg/injection, schedule: Q01DX011 (ip), vehicle: carboxymethylcellulose (CMC)) was 6 of 10 and the survivor count (dose: 529.0 mg/kg/injection, schedule: Q01DX011 (ip), vehicle: carboxymethylcellulose (CMC)) was 1 of 10. For the same compound, the survivor count (dose: 529.0 mg/kg/injection, schedule: Q01DX011 (ip), vehicle: other) was 0 of 10 and the survivor count (dose: 1058.0 mg/kg/injection, schedule: Q01DX011 (oral), vehicle: carboxymethylcellulose (CMC)) was 5 of 9.

For `O=c1[nH]c(=O)n(C2CC(O)C(CO)O2)cc1I` (stereo unspecified), the survivor count (dose: 250.0 mg/kg/injection, schedule: Q01DX011 (ip), vehicle: carboxymethylcellulose (CMC)) was 5 of 10, the survivor count [4] was 0 of 10 and the survivor count (dose: 1000.0 mg/kg/injection, schedule: Q01DX011 (ip), vehicle: carboxymethylcellulose (CMC)) was 0 of 10.

In the case of `CS(=O)(=O)OCCC(=O)N1CN(C(=O)CCOS(C)(=O)=O)CN(C(=O)CCOS(C)(=O)=O)C1`, the T/C (dose: 113.0 mg/kg/injection, schedule: Q01DX011 (ip), vehicle: methylcellulose (MC)) is reported as 133 % of control [9 of 10 alive].

`Cn1ncc2c(NCc3ccccc3)ncnc21` was tested, and the survivor count (dose: 40.0 mg/kg/injection, schedule: Q01DX011 (ip), vehicle: carboxymethylcellulose (CMC)) was 2 of 10.

In the case of `O=c1[nH]cc(N(CCCl)CCCl)c(=O)[nH]1`, the survivor count (dose: 1.67 mg/kg/injection, schedule: Q01DX011 (ip), vehicle: carboxymethylcellulose (CMC)) is reported as 3 of 10.

In the case of `COc1ccc(-c2c(C)c(C(=O)O)nc(-c3ccc4c(O)c(OC)c5c(c4n3)=NC(C)(C)N=5)c2N)c(O)c1OC`, the survivor count (dose: 20.0 mg/kg/injection, schedule: Q01DX011 (oral), vehicle: water) is reported as 3 of 12, the survivor count (dose: 67.0 mg/kg/injection, schedule: Q01DX001 (ip), vehicle: water) is reported as 4 of 10 and the survivor count (dose: 75.0 mg/kg/injection, schedule: Q07DX002 (ip), vehicle: water) is reported as 4 of 10. For the same compound, the survivor count (dose: 100.0 mg/kg/injection, schedule: Q01DX001 (ip), vehicle: water) was 1 of 10 and 4 of 10.

`CC(=O)OCC(=O)[C@@]1(O)CC[C@H]2[C@@H]3CCC4=CC(=O)[C@H](C)C[C@]4(C)[C@H]3[C@@H](O)C[C@@]21C` was tested, and the survivor count (dose: 200.0 mg/kg/injection, schedule: Q01DX011 (sc), vehicle: steroid suspending solution) was 3 of 10.

`CCN(CC)CCNc1ccc(C)c2sc3ccccc3c(=O)c12` was tested, and the T/C (dose: 41.4 mg/kg/injection, schedule: Q01DX011 (ip), vehicle: carboxymethylcellulose (CMC)) was 129 % of control and the survivor count (dose: 103.5 mg/kg/injection, schedule: Q01DX011 (ip), vehicle: carboxymethylcellulose (CMC)) was 5 of 10.
